# According to PubChem BioAssay AID2685 (National Center for Advancing Translational Sciences (NCATS), 2010):
# The other results are listed elsewhere or left out. Further columns of the screen follow, without active or inactive calls. Compounds called inactive in the main read-out are mostly missing here. Potencies come from curve fits of mixed quality, noted in brackets.
# Test: qHTS Assay for Lipid Storage Modulators in Drosophila S3 Cells;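 on cell number change: cells counted by Cell Tracker Red CMTPX staining in the red channel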
# Details: BODIPY lipid droplet fluorescence, 18-24 h; for cell number change: measured here: cell count max response, cells fed with added oleic acid
# Method in brief: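 Laser-scanning cytometry quantifies lipid droplet accumulation (500–530 nm total intensity; droplet/cell object ratio) in oleic acid-fed (400 uM added) Drosophila S3 cells treated with a concentration series. 20 uM Triacsin C defined 100% inhibition.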
# [1] = measured here: cell number channel AC50, cells fed with added oleic acid
# [2] = measured here: lipid fluorescence (Fed channel) AC50, cells fed with added oleic acid
SMILES,cell number change,AC50 [1],AC50 [2]
COc1cccc(C(=O)OCCN2C(=O)c3ccccc3C2=O)c1OC,-38.3%,"32.6 µM [falling, single point]","29.1 µM [falling, single point]"
CCc1ccc2oc(C(=O)NC3CCS(=O)(=O)C3)cc(=O)c2c1 (centres undefined),4.48%,,"6.51 µM [falling, single point]"
CCNC(=O)NC(=O)COc1ccccc1C#N,106%,"5.8 µM [rising, partial curve]","32.6 µM [rising, single point]"
CC1Oc2ccccc2N(CC(=O)NCCCN2CCOCC2)C1=O (centres undefined),-12.8%,,"29.1 µM [falling, single point]"
COC(=O)c1cnn(-c2ccc(C(=O)Nc3ccc(C(C)=O)cc3)cc2)c1N,37.6%,"14.6 µM [rising, partial curve]",
COc1ccc(Cl)cc1Nc1nc(-c2sc(NC(=O)c3ccccc3)nc2C)cs1,-42.2%,"9.2 µM [falling, partial curve]","10.3 µM [falling, partial curve]"
O=C(Oc1ccc(Br)cc1)c1n[nH]c(=O)c2ccccc12,-35.6%,,
C/C(=N\OCC(=O)Nn1c(=O)[nH]c2ccccc2c1=O)c1cccs1,-5.46%,,
CC(=O)N(/N=C/c1ccc(C)cc1)c1nc(CCl)cs1,11.3%,,
NC(=O)CC(NC(=O)c1cccc(Br)c1)c1ccc(N2CCC(N3CCCCC3)CC2)c([N+](=O)[O-])c1 (centres undefined),14.4%,,"0.651 µM [rising, single point]"
O=[N+]([O-])c1cc(Cl)ccc1NCCc1ccccn1,14.5%,,
CCOc1ccc(S(=O)(=O)N(CC(=O)N/N=C/c2cccs2)c2ccc(C)cc2)cc1,86.8%,"3.66 µM [rising, full curve]","3.66 µM [rising, full curve]"
COC(=O)c1ccc(NC(C)=O)o1,-14.7%,,
Cc1ccc(-n2c(C)cc(/C=N/Nc3ccc([N+](=O)[O-])cn3)c2C)cc1,-15.5%,,"6.51 µM [falling, single point]"
O=C(Nc1ccc(N2CCCCC2)c(Cl)c1)c1ncn[nH]1,-37.9%,"14.6 µM [falling, single point]",
NC(=O)N1CCN(C(=O)c2ccco2)CC1,-7.59%,,"20.6 µM [falling, single point]"
Cc1nn(CC2CCCCC2)c(N)c1-c1ccccc1,,"0.731 µM [rising, partial curve]",
Cc1ccc(C)c(NS(=O)(=O)c2ccc(NC(=O)c3ccco3)cc2)c1,,,"29.1 µM [falling, single point]"
O=C(CCC(=O)c1ccccc1)Nc1ccc(C(=O)O)cc1,,,"4.61 µM [rising, partial curve]"
COc1ccc(NC(=O)c2cc(-c3cc(OC)c(OC)c(OC)c3)nc3ccccc23)c(OC)c1,10.5%,,

SMILES,cell number change,AC50 [1],AC50 [2]
CCOc1ccc(NS(=O)(=O)c2ccc(C(=O)NCc3cccnc3)cc2)cc1,-14%,,"0.651 µM [falling, partial curve, poor fit]"
CC(Sc1n[nH]c(N)n1)C(=O)Nc1cccc2ccccc12 (centres undefined),-19.4%,,"16.4 µM [falling, single point]"
CC12CCC(C(=O)N(CSC(=S)N/N=C\c3ccccc3O)C1=O)C2(C)C (centres undefined),-6.78%,,"14.6 µM [falling, single point]"
CC1CCC(NC(=O)c2ccc(NC(=O)CC3SC(N4CCCC4)=NC3=O)cc2)CC1 (centres undefined),31.6%,"3.26 µM [rising, full curve]","0.0082 µM [rising, full curve, poor fit]"
O=C(CCc1ccccc1)n1nc(-c2ccco2)nc1SCc1ccccc1,52.4%,"29.1 µM [rising, single point]",
COC(=O)C1=C(N)Oc2cc(C)n(Cc3cccnc3)c(=O)c2C1c1ccccc1OC (centres undefined),-1.29%,,"5.8 µM [rising, single point]"
CCC(=O)Nc1cccc(Oc2nc(C)cc(C)c2C#N)c1,24.7%,"1.84 µM [rising, full curve, poor fit]","0.259 µM [falling, full curve]"
O=C(Nc1nc2ccccc2s1)NC1CCCCC1,-39.4%,"29.1 µM [falling, single point]",
COc1ccc2oc(=O)c(C(=O)N3CCN(c4ccccc4C)CC3)cc2c1,,"5.17 µM [rising, partial curve]","1.16 µM [rising, partial curve]"
CC1(C)NC(=O)N(CC(=O)N2CCCC(C(F)(F)F)C2)C1=O (centres undefined),-24.3%,"0.0326 µM [falling, full curve, poor fit]","5.17 µM [falling, full curve]"
COc1ccc(-c2cc(C(=O)NCCN3CCOCC3)no2)cc1OC,12.6%,,"11.6 µM [falling, single point]"
CCOc1ccc(OCCC(=O)Nc2cccc(S(=O)(=O)N3CCCC3)c2)cc1,122%,"11.6 µM [rising, partial curve]",
Cc1ccc(CNS(=O)(=O)c2c(C)nc3scc(C)n3c2=O)cc1,12.7%,"2.31 µM [rising, single point]","29.1 µM [rising, single point]"
COc1cccc(/C=N/N2CCN(C)CC2)c1,16.8%,"6.51 µM [rising, partial curve]",
Cc1ccc(NC(=O)C(Cc2ccccc2)N2C(=O)C3C4CCC(C4)C3C2=O)cc1Cl (centres undefined),-4.34%,,"0.184 µM [falling, full curve, poor fit]"
COc1ccc(C(=O)CC2OC(=O)c3c2ccc(OC)c3OC)cc1 (centres undefined),0.0238%,,"6.51 µM [falling, single point]"
CN1CCN(Cc2c(C#N)c3ccccc3n2C)CC1,-5.17%,,"5.8 µM [falling, full curve]"
Cc1ccc(OCCNC(=O)c2ccccc2SCC(=O)N2CCCC2)cc1,-38.9%,"18.4 µM [falling, partial curve]",
O=C(CCN1CCOCC1)NNC(=O)/C(=C/c1ccccc1)NC(=O)c1ccccc1,24.4%,"3.66 µM [falling, single point]",
COCCCNC(=O)Nc1ccc(F)cc1F,-19.5%,,

SMILES,cell number change,AC50 [1],AC50 [2]
CN(Cc1ccc(OCC(O)CN2CCCCC2)cc1)Cc1ccnc2ccccc12 (centres undefined),-35.8%,"14.6 µM [falling, single point]","13 µM [falling, partial curve]"
COc1cc(Cl)c(C)cc1NC(=O)CSc1ccccc1,-12.5%,"6.51 µM [falling, single point]",
COc1ccc(C(=O)n2nc(-c3ccc(Cl)cc3)nc2N)cc1OC,-77.1%,"8.2 µM [falling, partial curve]","16.4 µM [falling, single point]"
CC(C)C(c1nnnn1Cc1ccc(F)cc1)N1CCN(C2CCCCC2)CC1 (centres undefined),-9.32%,"0.0731 µM [falling, full curve, poor fit]",
O=C(c1ccc(Cl)c(Cl)c1)N1CCCC1,-13.7%,"0.00517 µM [falling, full curve, poor fit]","0.92 µM [falling, full curve, poor fit]"
CCc1ccccc1Oc1coc2cc(O)ccc2c1=O,-25%,,"4.11 µM [falling, partial curve, poor fit]"
Cc1ccc(C)c(S(=O)(=O)N2CCC3(CC2)OCCN3S(=O)(=O)c2cccs2)c1,1.35%,"2.91 µM [rising, single point]",
O=C(N/N=C/c1c[nH]c2ccc(Br)cc12)c1ccn(Cc2ccc(Cl)cc2)n1,-12%,,
Cc1ccccc1N1CC(O)(c2ccccc2)[N+]2=C1SCC2 (centres undefined),-15.4%,,"16.4 µM [falling, single point]"
COCCn1c(SCC(=O)Nc2ccc(NC(=O)c3ccco3)c(OC)c2)nc2ccccc2c1=O,-86.1%,"13 µM [falling, partial curve, poor fit]",
O=C(CC1NCCc2ccccc21)Nc1ccccc1Cl (centres undefined),-15.7%,,
COC(=O)C1=CO[C@@H](C)[C@H]2CN3CCc4c([nH]c5ccccc45)[C@@H]3C[C@H]12,33.2%,"0.326 µM [rising, full curve, poor fit]","0.366 µM [rising, full curve, poor fit]"
O=C(Nc1nn[nH]n1)c1cccc(Oc2ccccc2)c1,-76.7%,"16.4 µM [falling, partial curve, poor fit]","29.1 µM [falling, single point]"
O=C(NC1CCCCC1)c1cc(S(=O)(=O)N2CCOCC2)ccc1Cl,1.3%,,"0.13 µM [rising, full curve, poor fit]"
O=C(Nc1nccs1)C1C2/C=C\CCCCC21 (centres undefined),-29.6%,,
Cc1cccc(C(=O)N2c3ccccc3C(=O)OC2c2ccc3c(c2)OCO3)c1 (centres undefined),,,"0.00517 µM [falling, full curve, poor fit]"
Cc1ccc(/C=C/C(=O)OCC(=O)N2CC(=O)Nc3ccccc32)o1,30.3%,"0.259 µM [rising, full curve, poor fit]",
O=C(COC(=O)C1C2CC3OC(=O)C1C3C2)Nc1cccc(Cl)c1 (centres undefined),8.12%,,"2.91 µM [rising, single point]"
COc1cccc(CN2CCNC(=O)C2CC(=O)N(C)CC2CCOCC2)c1 (centres undefined),7.5%,,"29.1 µM [rising, single point]"
C[C@H](NC(=O)N1CCn2c1nc1ccccc12)C(=O)NC1CC1,-16.5%,,"6.51 µM [falling, single point]"

# An excerpt of these results, with bars between the fields:
SMILES | cell number change | AC50 [1] | AC50 [2]
COCCn1c(SCC(=O)Nc2ccc(NC(=O)c3ccco3)c(OC)c2)nc2ccccc2c1=O | -86.1% | 13 µM [falling, partial curve, poor fit] | 
O=C(CC1NCCc2ccccc21)Nc1ccccc1Cl (centres undefined) | -15.7% |  | 
COC(=O)C1=CO[C@@H](C)[C@H]2CN3CCc4c([nH]c5ccccc45)[C@@H]3C[C@H]12 | 33.2% | 0.326 µM [rising, full curve, poor fit] | 0.366 µM [rising, full curve, poor fit]
O=C(Nc1nn[nH]n1)c1cccc(Oc2ccccc2)c1 | -76.7% | 16.4 µM [falling, partial curve, poor fit] | 29.1 µM [falling, single point]
